The other results are listed elsewhere or left out.
compound: CC[C@H](C)[C@@H](C(=O)N[C@@H]([C@@H](C)O)C(=O)N[C@@H](CC(C)C)C(=O)[C@]1(CO1)C)NC(=O)[C@H]([C@@H](C)CC)N(C)C(=O)C [epoxomicin]; assay: log2 fold change, soluble protein after heating vs DMSO (PISA); higher = thermal stabilisation; K562 cells, 10 uM, 30 min; active = over 0.2 and 3.5 SD of the protein, either way, in both replicates (recomputed)
How it was run: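 Thermal stability values are relative to control samples and come from duplicates. They are expressed as log2 fold changes. For measurement, K562 cells (2×10^6 cells/mL) received 10 μM compound for 30 min, and aliquots were heated for 3 min over 48°C-58°C, pooled, and extracted at 4°C in PBS with 0.5% NP-40. Soluble protein, the supernatant after 21,000xg for 90 min, was quantified by TMTpro 16plex LC-MS/MS with equalised channel sums.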

Sequences of proteins named here, by UniProt entry; tags and fusion partners are left off. A change or cut given only in a name is not applied to a line headed by its entry.
UniProt Q9UBS8: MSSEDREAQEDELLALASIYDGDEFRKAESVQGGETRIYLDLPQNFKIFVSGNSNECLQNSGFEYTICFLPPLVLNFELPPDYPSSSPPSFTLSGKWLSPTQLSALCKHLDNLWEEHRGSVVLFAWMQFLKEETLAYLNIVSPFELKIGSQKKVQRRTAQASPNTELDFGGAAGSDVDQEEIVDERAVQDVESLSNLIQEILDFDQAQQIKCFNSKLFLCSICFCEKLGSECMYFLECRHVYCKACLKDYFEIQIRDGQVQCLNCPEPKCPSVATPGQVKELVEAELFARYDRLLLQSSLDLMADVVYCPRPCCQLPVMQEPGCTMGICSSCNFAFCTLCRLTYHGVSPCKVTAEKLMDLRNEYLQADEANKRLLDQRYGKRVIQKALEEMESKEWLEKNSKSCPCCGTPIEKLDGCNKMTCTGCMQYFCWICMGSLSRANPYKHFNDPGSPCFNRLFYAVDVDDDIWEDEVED
UniProt P34096: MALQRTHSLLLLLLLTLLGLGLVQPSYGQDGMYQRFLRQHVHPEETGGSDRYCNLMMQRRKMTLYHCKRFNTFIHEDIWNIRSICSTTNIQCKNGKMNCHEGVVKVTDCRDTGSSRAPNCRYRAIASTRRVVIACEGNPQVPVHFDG
UniProt Q96D71: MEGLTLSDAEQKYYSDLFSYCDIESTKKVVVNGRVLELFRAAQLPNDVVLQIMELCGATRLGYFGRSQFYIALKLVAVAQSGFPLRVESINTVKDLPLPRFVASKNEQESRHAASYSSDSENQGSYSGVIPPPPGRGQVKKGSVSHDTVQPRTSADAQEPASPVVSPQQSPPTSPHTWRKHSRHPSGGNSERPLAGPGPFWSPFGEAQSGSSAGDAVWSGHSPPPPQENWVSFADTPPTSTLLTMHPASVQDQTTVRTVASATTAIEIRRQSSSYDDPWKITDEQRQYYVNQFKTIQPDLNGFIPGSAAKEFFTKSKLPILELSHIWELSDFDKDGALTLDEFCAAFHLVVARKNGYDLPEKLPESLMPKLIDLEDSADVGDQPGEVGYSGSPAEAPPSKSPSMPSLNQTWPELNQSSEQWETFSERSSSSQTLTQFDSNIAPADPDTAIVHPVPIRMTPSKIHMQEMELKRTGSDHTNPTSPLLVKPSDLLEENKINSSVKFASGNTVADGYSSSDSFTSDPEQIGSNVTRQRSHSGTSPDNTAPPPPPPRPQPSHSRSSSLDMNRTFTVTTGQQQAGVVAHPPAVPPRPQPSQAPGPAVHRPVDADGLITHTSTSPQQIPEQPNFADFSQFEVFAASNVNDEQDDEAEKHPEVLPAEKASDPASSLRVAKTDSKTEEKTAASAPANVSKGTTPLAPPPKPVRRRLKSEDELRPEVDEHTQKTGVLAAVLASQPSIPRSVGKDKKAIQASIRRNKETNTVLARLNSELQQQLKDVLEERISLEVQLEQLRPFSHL
UniProt Q969G6: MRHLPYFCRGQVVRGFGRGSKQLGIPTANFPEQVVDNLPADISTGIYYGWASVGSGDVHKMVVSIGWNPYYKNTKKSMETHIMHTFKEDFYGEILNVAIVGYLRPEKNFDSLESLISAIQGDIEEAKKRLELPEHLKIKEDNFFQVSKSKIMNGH
UniProt Q9BV68: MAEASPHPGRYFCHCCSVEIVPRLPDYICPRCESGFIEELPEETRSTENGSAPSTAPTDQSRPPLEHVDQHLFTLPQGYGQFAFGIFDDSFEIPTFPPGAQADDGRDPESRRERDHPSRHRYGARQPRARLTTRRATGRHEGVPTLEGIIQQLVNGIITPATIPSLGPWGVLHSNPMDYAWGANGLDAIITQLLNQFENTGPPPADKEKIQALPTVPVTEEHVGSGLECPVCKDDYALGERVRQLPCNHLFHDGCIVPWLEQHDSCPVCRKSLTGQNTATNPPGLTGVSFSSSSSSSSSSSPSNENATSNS
UniProt Q9BWE0: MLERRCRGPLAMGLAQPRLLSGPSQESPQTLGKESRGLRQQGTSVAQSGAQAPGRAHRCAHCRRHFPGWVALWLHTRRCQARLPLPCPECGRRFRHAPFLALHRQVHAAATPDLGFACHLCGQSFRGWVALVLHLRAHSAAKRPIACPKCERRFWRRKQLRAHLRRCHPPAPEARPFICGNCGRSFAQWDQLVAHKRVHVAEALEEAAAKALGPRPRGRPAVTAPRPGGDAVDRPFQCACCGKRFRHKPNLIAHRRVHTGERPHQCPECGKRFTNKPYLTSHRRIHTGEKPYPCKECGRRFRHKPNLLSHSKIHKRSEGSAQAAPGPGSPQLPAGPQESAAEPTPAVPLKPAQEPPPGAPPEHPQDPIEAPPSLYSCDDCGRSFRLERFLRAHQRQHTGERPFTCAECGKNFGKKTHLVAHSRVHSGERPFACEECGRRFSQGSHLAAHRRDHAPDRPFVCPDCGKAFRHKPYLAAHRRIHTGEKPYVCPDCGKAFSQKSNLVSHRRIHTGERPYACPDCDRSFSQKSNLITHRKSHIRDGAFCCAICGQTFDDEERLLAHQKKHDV
UniProt Q9ULI2: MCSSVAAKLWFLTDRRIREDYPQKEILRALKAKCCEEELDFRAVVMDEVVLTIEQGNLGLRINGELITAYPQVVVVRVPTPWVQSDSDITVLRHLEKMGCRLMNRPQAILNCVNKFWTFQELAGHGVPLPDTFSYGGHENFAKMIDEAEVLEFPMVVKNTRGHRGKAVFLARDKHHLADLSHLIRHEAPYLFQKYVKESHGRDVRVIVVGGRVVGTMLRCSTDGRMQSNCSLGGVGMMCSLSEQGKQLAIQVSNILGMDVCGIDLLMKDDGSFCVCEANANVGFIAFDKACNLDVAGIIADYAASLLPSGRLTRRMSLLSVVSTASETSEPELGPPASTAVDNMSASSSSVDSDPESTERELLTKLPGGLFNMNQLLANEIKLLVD
UniProt Q96PM5: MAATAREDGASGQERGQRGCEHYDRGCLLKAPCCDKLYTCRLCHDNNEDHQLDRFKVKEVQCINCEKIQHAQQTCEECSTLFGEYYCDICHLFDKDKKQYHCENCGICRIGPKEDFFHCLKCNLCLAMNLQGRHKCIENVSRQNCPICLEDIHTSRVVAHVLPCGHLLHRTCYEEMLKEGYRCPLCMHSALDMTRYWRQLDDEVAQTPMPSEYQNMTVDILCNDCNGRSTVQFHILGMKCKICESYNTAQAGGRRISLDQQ
UniProt Q9P0P0: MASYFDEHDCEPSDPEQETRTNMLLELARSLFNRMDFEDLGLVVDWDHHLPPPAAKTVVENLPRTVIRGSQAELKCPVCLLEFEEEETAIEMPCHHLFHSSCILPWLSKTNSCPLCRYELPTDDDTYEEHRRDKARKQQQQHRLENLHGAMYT
UniProt Q96DB5: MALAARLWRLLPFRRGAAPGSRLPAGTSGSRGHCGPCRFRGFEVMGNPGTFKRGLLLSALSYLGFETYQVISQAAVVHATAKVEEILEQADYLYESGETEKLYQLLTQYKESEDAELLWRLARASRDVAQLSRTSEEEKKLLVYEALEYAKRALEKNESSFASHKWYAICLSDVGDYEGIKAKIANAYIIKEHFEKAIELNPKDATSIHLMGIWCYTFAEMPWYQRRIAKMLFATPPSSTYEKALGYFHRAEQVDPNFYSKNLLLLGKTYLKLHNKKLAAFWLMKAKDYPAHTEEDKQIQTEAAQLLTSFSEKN
UniProt Q5TBB1: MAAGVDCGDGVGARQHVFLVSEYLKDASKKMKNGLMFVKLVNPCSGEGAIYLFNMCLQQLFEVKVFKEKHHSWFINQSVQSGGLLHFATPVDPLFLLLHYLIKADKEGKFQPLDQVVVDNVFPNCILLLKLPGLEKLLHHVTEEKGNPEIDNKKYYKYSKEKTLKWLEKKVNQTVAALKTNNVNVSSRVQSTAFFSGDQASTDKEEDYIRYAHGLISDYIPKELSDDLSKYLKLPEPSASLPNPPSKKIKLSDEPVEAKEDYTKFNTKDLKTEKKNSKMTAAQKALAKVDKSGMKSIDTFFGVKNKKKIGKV
UniProt P82980: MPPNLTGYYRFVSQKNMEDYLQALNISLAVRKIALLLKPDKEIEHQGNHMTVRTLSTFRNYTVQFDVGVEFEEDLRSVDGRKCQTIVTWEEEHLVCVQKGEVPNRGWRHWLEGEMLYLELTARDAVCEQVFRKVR
UniProt Q8WVD3: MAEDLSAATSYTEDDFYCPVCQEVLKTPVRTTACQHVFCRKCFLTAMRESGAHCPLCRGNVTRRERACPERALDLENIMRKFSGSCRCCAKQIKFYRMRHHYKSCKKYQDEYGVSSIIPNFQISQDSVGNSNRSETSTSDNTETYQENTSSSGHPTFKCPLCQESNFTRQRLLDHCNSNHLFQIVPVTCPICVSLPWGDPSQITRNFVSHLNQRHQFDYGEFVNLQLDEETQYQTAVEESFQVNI
UniProt Q96K19: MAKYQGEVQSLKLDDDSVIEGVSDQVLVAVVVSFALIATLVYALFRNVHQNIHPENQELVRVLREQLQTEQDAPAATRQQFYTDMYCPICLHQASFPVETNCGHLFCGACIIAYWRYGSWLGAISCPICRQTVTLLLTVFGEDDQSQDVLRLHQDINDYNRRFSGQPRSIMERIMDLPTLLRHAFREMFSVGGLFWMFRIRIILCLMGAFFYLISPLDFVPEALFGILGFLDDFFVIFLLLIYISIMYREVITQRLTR
UniProt Q9H871: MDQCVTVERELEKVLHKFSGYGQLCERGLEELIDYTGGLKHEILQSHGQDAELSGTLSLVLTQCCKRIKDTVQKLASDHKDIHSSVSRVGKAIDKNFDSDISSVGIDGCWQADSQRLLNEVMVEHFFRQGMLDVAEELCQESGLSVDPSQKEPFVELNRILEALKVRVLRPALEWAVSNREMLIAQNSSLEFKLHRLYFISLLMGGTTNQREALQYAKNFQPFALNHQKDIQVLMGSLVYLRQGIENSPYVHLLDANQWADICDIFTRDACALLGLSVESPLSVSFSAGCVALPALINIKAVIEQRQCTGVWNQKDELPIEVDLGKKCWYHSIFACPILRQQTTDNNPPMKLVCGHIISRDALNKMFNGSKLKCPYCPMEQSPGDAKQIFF
UniProt P35249, whole entry, looked up: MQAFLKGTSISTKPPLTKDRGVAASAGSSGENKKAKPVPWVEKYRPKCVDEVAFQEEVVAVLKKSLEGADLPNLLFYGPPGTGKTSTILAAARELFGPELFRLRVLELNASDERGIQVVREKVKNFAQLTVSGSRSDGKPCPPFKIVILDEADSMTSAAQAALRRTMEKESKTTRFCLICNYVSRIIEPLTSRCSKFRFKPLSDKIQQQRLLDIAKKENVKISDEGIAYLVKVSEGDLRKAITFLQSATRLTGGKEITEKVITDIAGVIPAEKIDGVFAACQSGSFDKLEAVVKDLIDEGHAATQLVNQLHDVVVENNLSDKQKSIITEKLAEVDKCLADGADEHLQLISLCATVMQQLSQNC
UniProt A6NED2: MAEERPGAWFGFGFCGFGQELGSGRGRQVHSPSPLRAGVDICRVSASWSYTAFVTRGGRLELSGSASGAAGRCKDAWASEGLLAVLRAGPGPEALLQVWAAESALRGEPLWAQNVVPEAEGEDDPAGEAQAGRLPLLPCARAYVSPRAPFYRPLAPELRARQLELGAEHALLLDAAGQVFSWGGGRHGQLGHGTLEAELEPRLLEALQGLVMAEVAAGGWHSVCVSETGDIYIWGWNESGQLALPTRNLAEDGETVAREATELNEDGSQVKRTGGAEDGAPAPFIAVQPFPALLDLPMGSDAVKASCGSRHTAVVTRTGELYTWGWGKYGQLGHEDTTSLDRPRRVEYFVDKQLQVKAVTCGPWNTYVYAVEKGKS
UniProt P35250, whole entry, looked up: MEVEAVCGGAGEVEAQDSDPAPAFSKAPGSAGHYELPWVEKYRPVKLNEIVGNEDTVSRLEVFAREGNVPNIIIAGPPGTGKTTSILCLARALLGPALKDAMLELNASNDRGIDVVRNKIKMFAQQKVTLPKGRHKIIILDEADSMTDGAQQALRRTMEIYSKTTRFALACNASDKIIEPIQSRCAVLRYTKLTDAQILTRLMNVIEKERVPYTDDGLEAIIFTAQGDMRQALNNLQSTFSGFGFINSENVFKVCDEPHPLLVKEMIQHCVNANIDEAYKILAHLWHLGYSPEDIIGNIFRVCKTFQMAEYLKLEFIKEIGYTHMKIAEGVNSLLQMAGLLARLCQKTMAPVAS
UniProt Q9BVS4: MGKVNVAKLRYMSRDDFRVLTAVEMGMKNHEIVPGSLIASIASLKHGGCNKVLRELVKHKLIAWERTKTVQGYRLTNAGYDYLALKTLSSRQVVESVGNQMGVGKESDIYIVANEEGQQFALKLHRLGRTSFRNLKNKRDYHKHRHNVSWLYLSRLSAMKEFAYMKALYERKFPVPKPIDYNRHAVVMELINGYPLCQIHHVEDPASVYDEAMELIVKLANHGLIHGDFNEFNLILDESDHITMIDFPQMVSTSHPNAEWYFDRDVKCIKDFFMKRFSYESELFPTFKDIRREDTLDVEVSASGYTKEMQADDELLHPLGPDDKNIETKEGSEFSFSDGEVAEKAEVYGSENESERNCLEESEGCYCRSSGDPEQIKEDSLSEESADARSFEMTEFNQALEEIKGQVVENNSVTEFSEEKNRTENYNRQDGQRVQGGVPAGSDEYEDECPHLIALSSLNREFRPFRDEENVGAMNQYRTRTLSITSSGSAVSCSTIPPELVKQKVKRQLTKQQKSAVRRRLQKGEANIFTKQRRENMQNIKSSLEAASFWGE

log2 fold change, inactive:
RELN (UniProt P78509) -0.04
RING1 (UniProt Q06587) 0.054
RNF14 (UniProt Q9UBS8) -0.075
RNASE4 (UniProt P34096) -0.185
RBM42 (UniProt Q9BTD8) -0.085
RFC5 (UniProt P40937) 0.045
REPS1 (UniProt Q96D71) -0.118
RFK (UniProt Q969G6) 0.066
RNF126 (UniProt Q9BV68) 0.067
RFFL (UniProt Q8WZ73) -0.016
REPIN1 isoform 4 (UniProt Q9BWE0) 0.044
RIPK2 (UniProt O43353) -0.021
RIMKLB (UniProt Q9ULI2) -0.06
RCHY1 (UniProt Q96PM5) 0.055
RHOG (UniProt P84095) -0.004
RNF181 (UniProt Q9P0P0) -0.022
RHOC (UniProt P08134) 0.021
RBM4 (UniProt Q9BWF3) -0.018
RMDN1 (UniProt Q96DB5) 0.028
RIDA (UniProt P52758) 0.003
RILP (UniProt Q96NA2) -0.008
RNF20 (UniProt Q5VTR2) 0.07
RNASEH2B (UniProt Q5TBB1) 0.11
RBM7 (UniProt Q9Y580) 0
RCC1 isoform 2 (UniProt P18754) 0.118
RBP5 (UniProt P82980) 0.081
RNF138 (UniProt Q8WVD3) 0.081
RNF170 (UniProt Q96K19) -0.019
RMND5A (UniProt Q9H871) -0.032
RFC4 (UniProt P35249) 0.103
RFXAP (UniProt O00287) 0.043
RIF1 (UniProt Q5UIP0) -0.057
RNF220 (UniProt Q5VTB9) -0.021
REEP3 (UniProt Q6NUK4) -0.059
RCCD1 (UniProt A6NED2) -0.089
RCC2 (UniProt Q9P258) 0.011
RFC2 (UniProt P35250) 0.039
RFESD isoform 2 (UniProt Q8TAC1) -0.02
RIOK2 (UniProt Q9BVS4) -0.032

Quoted at random: 2 records from the list, in no set order.
log2 fold change, inactive:
RFESD isoform 2 (UniProt Q8TAC1) -0.02
RBM42 (UniProt Q9BTD8) -0.085
